Values from PubChem BioAssay AID1259308 (NCATS, 2017).
Screen: 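Genes whose loss raises luciferase production in HEK293 cells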 (primary screen). Cell system: human HEK293 embryonic kidney cells stably expressing firefly luciferase (HEK-CMV-Luc2-Hygro). Reagent: single siRNA against human genes, 0.8 pmol siRNA per well. Duration: 72 h. Read-out: 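Reporter luminescence and viable-cell signal on separate replicate plates, given as percent of non-targeting control and median/MAD z-scores, plus per-cell luciferase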. Reading the numbers: total luciferase, z-score and total luciferase, % of control: higher = more reporter protein produced; luciferase per cell, z-score: higher = more reporter output per viable cell; viable cells, % of control: higher = more viable cells. Call rule: 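An siRNA counts as active if its total luciferase robust z-score exceeds 3; genes with two or more such siRNAs out of three were retested with fresh siRNAs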. Calls: active = raised luciferase; inactive = no rise.
The whole screen tested about 59,000 reagents; shown is an unselected part. About 1,510 of them (2.6%) count as active. 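Calls use total luciferase alone and ignore viability, so some active siRNAs may act by altering cell number.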 The numbers tell different reagents against one gene apart. Reagent sequences are not shown.

no.	gene symbol	reagent	total luciferase, z-score	total luciferase, % of control	luciferase per cell, z-score	viable cells, % of control	outcome
1	PTGFR (prostaglandin F receptor)	1	-0.0906	80.1	-0.548	103	inactive
2	PTGFR (prostaglandin F receptor)	2	-2.07	40.7	-1.63	69.8	inactive
3	PTGFR (prostaglandin F receptor)	3	-1.01	61.9	-1.38	99.3	inactive
4	LINC01776 (long independently transcribed non-coding RNA 1776)	1	0.303	87.9	-0.21	104	inactive
5	LINC01776 (long independently transcribed non-coding RNA 1776)	2	-0.636	69.2	0.301	71.5	inactive
6	LINC01776 (long independently transcribed non-coding RNA 1776)	3	0.505	91.9	0.456	91.1	inactive
7	OR51G2 (olfactory receptor family 51 subfamily G member 2)	1	0.451	90.9	0.0297	101	inactive
8	OR51G2 (olfactory receptor family 51 subfamily G member 2)	2	0.326	88.4	-0.237	105	inactive
9	OR51G2 (olfactory receptor family 51 subfamily G member 2)	3	0.536	92.6	-0.454	117	inactive
10	KLK10 (kallikrein related peptidase 10)	1	-0.219	77.5	-1.07	115	inactive
11	KLK10 (kallikrein related peptidase 10)	2	0.223	86.3	0.386	87.1	inactive
12	KLK10 (kallikrein related peptidase 10)	3	2.99	141	2.01	93.1	inactive
13	ANKRD62 (ankyrin repeat domain 62)	1	-1.04	61.1	-0.842	85.3	inactive
14	ANKRD62 (ankyrin repeat domain 62)	2	0.511	92	-0.0239	104	inactive
15	ANKRD62 (ankyrin repeat domain 62)	3	-0.591	70.1	-1.08	104	inactive
16	MPDU1 (mannose-P-dolichol utilization defect 1)	1	1.89	120	1.3	94.9	inactive
17	MPDU1 (mannose-P-dolichol utilization defect 1)	2	-0.754	66.9	-0.744	90.9	inactive
18	MPDU1 (mannose-P-dolichol utilization defect 1)	3	-1.37	54.7	-1.35	87.2	inactive
19	EEF1D (eukaryotic translation elongation factor 1 delta)	1	-0.267	76.6	-0.888	108	inactive
20	EEF1D (eukaryotic translation elongation factor 1 delta)	2	3.45	151	2.64	83.9	active
21	EEF1D (eukaryotic translation elongation factor 1 delta)	3	-0.279	76.3	-0.524	97.9	inactive
22	ACOT12 (acyl-CoA thioesterase 12)	1	-0.137	79.2	-0.28	95.2	inactive
23	ACOT12 (acyl-CoA thioesterase 12)	2	-0.178	78.3	1.38	60.9	inactive
24	ACOT12 (acyl-CoA thioesterase 12)	3	0.034	82.6	0.295	85.4	inactive
25	TRPM7	1	0.26	87.1	0.27	90.6	inactive
26	TRPM7	2	-1.4	54.1	-1.6	92	inactive
27	TRPM7	3	-1.58	50.5	-0.826	70.1	inactive
28	RETN (resistin)	1	-0.0962	80	-0.351	98	inactive
29	RETN (resistin)	2	-0.967	62.6	-1.18	95.5	inactive
30	RETN (resistin)	3	2.1	124	2.14	78.6	inactive
31	NAA38 (N-alpha-acetyltransferase 38, NatC auxiliary subunit)	1	2.42	130	2.57	73.9	inactive
32	NAA38 (N-alpha-acetyltransferase 38, NatC auxiliary subunit)	2	-0.221	77.5	0.715	71.7	inactive
33	NAA38 (N-alpha-acetyltransferase 38, NatC auxiliary subunit)	3	-1.09	60.3	-0.987	87.3	inactive
34	LOC729968 (spore coat protein SP96)	1	2.29	127	3.41	58	inactive
35	LOC729968 (spore coat protein SP96)	2	-0.883	64.3	-0.463	81.2	inactive
36	LOC729968 (spore coat protein SP96)	3	0.72	96.2	0.514	93.9	inactive
37	LOC729968 (spore coat protein SP96)	4	2.11	124	2.31	75.4	inactive
38	LOC729968 (spore coat protein SP96)	5	0.462	91.1	-0.00897	102	inactive
39	LOC729968 (spore coat protein SP96)	6	0.114	84.2	-0.679	112	inactive
40	PPARGC1B (PPARG coactivator 1 beta)	1	1.17	105	1.13	87.3	inactive
41	PPARGC1B (PPARG coactivator 1 beta)	2	2.11	124	2.61	69.6	inactive
42	PPARGC1B (PPARG coactivator 1 beta)	3	-0.319	75.5	0.557	72.9	inactive
43	OR51F1 (olfactory receptor family 51 subfamily F member 1)	1	3.16	145	2.96	74.3	active
44	OR51F1 (olfactory receptor family 51 subfamily F member 1)	2	0.509	92	-0.591	120	inactive
45	OR51F1 (olfactory receptor family 51 subfamily F member 1)	3	-0.14	79.1	-0.147	91.9	inactive
46	NACA (nascent polypeptide associated complex subunit alpha)	1	3.19	145	4.41	50.9	active
47	NACA (nascent polypeptide associated complex subunit alpha)	2	0.348	88.8	1.12	73.9	inactive
48	NACA (nascent polypeptide associated complex subunit alpha)	3	0.994	102	2.67	56.2	inactive
49	SEMA4G (semaphorin 4G)	1	1.57	113	1.34	88.8	inactive
50	SEMA4G (semaphorin 4G)	2	-0.0974	79.9	-0.685	107	inactive
51	SEMA4G (semaphorin 4G)	3	3.21	146	2.04	95	active
52	C17orf58 (chromosome 17 open reading frame 58)	1	0.539	92.6	-0.175	108	inactive
53	C17orf58 (chromosome 17 open reading frame 58)	2	-1.54	51.2	-0.903	72.5	inactive
54	C17orf58 (chromosome 17 open reading frame 58)	3	2.28	127	1.63	92.4	inactive
55	SEM1 (SEM1 26S proteasome subunit)	1	1.09	104	1.03	88.2	inactive
56	SEM1 (SEM1 26S proteasome subunit)	2	0.517	92.2	1.06	77.9	inactive
57	SEM1 (SEM1 26S proteasome subunit)	3	1.02	102	0.475	101	inactive
58	SEM1 (SEM1 26S proteasome subunit)	4	-0.0302	81.3	-0.112	93.6	inactive
59	SEM1 (SEM1 26S proteasome subunit)	5	-1.42	53.6	-0.302	64.8	inactive
60	SEM1 (SEM1 26S proteasome subunit)	6	0.593	93.7	0.607	89.2	inactive

6 successive records already listed, quoted:
no.	gene symbol	reagent	total luciferase, z-score	total luciferase, % of control	luciferase per cell, z-score	viable cells, % of control	outcome
5	LINC01776 (long independently transcribed non-coding RNA 1776)	2	-0.636	69.2	0.301	71.5	inactive
6	LINC01776 (long independently transcribed non-coding RNA 1776)	3	0.505	91.9	0.456	91.1	inactive
7	OR51G2 (olfactory receptor family 51 subfamily G member 2)	1	0.451	90.9	0.0297	101	inactive
8	OR51G2 (olfactory receptor family 51 subfamily G member 2)	2	0.326	88.4	-0.237	105	inactive
9	OR51G2 (olfactory receptor family 51 subfamily G member 2)	3	0.536	92.6	-0.454	117	inactive
10	KLK10 (kallikrein related peptidase 10)	1	-0.219	77.5	-1.07	115	inactive
